# Measured values published in US20090092971A1.
# Amino acid sequences for entries named in this document (tags omitted). Residues count along the entry.
# UniProt P61586, residues 1-190: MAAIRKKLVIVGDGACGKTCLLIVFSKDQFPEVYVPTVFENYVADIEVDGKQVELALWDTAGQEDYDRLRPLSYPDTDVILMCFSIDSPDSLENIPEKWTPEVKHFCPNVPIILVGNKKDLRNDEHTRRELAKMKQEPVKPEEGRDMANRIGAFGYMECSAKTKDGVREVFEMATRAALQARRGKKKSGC
# These are yes or no findings as the source states them, for the method shown. Binding seen in cells or lysates may run through a third protein. Some results given as binding are weak or reduced against the parent protein; the word gives no strength.
# Target: active RhoA (UniProt P61586)
# Test: pull-down from cell extracts with GST-Rhotekin-RBD, western blot with a RhoA-specific antibody
substance,measurement,value
GST-Rhotekin-RBD (Rho-binding domain) (from UniProt Q9BST9 7-89),binding,binds
